Drawing on paper PMC3391262, this text covers binding for 3 molecules.

The chains behind the UniProt entries cited, without tags or fusion partners. Where a name states a change or a piece, a line headed by the entry shows the natural chain unless it says otherwise.
UniProt O15230: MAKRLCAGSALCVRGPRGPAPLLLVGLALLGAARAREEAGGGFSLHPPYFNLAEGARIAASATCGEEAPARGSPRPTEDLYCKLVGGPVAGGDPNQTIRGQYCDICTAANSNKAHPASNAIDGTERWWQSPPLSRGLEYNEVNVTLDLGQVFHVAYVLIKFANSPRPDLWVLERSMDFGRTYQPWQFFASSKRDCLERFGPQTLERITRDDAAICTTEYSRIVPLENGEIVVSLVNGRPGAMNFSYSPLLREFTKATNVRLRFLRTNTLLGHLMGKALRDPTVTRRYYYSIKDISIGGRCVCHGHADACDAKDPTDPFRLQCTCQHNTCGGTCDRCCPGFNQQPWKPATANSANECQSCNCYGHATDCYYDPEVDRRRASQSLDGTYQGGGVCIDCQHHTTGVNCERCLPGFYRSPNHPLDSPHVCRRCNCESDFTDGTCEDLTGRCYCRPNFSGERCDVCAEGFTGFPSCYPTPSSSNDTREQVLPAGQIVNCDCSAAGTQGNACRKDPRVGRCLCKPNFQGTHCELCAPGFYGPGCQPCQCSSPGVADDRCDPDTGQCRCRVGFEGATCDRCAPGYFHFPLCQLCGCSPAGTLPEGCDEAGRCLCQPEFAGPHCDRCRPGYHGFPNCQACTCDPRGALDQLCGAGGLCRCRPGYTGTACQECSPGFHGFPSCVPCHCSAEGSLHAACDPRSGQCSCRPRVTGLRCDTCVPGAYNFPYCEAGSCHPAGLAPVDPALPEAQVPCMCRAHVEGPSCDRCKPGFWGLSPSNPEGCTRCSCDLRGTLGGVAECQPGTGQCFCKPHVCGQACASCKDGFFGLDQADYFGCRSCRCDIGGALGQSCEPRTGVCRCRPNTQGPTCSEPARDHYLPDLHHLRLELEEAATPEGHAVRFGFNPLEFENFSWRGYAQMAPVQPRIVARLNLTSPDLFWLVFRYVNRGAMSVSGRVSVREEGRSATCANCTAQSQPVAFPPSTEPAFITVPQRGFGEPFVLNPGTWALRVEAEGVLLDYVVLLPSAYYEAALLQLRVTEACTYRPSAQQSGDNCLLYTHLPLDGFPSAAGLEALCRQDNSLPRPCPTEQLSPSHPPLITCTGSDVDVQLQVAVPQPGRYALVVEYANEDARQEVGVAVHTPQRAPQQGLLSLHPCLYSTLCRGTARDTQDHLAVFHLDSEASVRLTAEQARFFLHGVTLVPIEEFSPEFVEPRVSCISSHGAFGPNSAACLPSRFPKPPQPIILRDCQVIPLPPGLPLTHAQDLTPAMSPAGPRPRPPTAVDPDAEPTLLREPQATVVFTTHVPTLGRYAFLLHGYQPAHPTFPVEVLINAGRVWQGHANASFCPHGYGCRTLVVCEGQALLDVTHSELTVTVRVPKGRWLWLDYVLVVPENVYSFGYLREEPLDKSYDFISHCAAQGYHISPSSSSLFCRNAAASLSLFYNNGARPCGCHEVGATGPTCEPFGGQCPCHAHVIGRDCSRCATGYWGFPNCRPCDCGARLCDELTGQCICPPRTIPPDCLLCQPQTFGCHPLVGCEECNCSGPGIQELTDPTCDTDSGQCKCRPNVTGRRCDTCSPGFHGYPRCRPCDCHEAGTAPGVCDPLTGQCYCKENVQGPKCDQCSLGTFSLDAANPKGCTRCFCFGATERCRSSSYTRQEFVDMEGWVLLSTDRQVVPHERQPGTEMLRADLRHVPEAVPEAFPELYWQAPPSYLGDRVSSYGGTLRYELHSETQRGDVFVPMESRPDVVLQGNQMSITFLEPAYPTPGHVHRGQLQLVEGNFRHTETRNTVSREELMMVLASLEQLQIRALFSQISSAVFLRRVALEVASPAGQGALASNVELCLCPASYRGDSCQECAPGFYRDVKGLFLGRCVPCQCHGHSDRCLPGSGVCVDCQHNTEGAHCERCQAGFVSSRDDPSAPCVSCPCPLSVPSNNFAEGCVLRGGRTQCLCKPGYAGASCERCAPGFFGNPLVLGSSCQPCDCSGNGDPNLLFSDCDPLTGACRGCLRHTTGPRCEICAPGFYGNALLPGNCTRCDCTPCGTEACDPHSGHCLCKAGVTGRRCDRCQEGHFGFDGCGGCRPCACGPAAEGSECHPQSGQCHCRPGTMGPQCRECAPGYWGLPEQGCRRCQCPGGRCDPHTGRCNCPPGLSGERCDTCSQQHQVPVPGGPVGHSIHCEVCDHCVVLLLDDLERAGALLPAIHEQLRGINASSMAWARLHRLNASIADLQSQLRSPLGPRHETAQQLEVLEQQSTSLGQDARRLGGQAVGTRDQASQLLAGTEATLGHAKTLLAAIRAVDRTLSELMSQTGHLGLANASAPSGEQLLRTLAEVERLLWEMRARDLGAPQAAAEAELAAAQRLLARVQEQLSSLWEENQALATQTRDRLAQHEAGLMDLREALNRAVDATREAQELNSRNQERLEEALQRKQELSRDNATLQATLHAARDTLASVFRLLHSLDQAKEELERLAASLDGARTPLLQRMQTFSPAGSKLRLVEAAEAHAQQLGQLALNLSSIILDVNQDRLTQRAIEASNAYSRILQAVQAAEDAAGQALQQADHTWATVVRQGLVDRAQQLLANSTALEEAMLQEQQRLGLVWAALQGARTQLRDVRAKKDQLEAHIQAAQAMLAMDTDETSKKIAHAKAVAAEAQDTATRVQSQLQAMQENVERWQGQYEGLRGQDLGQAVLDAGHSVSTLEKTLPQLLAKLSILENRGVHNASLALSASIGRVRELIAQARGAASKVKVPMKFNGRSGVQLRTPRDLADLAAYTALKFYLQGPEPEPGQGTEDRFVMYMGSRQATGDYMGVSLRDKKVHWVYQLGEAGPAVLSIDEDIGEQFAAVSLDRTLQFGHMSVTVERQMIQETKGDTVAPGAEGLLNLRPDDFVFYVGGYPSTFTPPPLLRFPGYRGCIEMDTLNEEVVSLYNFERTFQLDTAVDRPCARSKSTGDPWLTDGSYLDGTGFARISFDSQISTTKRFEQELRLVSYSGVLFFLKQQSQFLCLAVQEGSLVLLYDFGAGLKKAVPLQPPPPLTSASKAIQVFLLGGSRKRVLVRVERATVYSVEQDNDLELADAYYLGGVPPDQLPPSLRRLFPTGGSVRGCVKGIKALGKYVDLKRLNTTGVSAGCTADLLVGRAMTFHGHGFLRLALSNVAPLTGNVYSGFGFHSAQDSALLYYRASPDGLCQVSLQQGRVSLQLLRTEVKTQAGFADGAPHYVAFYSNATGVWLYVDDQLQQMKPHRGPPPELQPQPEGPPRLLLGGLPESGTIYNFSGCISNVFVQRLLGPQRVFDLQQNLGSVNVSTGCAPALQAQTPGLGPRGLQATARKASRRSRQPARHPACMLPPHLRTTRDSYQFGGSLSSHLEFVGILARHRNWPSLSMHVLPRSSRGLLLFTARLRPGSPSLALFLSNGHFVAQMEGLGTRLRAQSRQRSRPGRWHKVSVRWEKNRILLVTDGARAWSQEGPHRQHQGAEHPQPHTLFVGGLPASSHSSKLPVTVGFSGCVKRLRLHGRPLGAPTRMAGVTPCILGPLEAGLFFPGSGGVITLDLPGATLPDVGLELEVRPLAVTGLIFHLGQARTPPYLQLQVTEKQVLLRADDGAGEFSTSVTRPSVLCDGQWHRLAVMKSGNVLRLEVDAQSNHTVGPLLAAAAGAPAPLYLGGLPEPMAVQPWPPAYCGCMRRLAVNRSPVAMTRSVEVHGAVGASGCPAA
UniProt Q16363: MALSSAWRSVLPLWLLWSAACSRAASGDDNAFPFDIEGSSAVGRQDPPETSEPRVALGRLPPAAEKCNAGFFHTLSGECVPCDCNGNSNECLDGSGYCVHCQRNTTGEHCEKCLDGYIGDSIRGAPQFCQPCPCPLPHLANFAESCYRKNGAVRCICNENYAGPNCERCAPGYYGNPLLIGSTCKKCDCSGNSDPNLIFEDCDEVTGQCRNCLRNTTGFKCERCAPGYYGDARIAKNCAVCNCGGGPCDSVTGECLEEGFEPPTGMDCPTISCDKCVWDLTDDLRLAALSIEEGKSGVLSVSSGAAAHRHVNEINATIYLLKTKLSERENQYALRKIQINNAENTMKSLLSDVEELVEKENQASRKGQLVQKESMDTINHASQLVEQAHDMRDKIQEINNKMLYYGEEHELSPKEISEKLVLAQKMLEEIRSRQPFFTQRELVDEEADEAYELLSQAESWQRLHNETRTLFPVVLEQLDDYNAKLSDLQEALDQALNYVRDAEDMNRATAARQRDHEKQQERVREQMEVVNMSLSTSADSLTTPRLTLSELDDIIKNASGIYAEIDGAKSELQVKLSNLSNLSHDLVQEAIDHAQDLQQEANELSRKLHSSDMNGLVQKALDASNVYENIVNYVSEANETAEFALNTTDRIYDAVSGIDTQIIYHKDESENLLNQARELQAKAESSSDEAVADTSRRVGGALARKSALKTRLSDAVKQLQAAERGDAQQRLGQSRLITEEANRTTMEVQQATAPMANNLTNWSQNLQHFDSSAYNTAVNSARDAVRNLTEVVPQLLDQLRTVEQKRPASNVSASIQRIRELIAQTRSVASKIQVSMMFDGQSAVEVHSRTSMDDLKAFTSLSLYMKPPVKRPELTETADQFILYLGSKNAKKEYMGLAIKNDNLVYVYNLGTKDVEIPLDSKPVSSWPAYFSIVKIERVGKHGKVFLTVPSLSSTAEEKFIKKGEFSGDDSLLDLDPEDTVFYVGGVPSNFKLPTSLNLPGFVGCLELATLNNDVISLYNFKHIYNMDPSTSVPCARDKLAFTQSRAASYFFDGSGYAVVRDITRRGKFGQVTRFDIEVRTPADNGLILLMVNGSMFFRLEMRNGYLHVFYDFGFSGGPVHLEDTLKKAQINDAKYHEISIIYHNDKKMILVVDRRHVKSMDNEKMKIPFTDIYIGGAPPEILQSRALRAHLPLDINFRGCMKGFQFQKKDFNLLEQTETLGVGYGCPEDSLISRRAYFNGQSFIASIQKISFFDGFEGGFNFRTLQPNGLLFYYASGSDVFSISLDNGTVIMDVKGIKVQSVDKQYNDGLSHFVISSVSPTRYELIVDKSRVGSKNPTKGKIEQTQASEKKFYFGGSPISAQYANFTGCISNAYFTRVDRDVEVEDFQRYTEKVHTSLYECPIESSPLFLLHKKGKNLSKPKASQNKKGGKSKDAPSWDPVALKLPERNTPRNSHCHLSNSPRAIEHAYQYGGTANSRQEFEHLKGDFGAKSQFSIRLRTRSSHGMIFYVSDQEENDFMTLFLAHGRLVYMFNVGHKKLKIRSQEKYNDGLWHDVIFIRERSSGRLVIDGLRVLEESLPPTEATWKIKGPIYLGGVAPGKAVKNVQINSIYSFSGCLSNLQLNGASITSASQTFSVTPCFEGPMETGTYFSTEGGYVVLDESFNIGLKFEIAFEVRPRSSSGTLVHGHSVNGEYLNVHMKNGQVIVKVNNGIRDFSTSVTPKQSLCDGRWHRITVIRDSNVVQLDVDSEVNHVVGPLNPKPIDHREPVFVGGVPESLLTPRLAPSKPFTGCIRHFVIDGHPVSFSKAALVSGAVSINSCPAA

These are yes or no findings as the source states them, for the method shown. Some entries that bind do so weakly or less than the wild type. For part of these data: Sequences can lack the tags named with a protein.

Assay [1] deals with T1, mouse MCAM on stably transfected CHO cells (CHO.mMCAM) (mouse) (UniProt Q8R2Y2).
T1 sequence: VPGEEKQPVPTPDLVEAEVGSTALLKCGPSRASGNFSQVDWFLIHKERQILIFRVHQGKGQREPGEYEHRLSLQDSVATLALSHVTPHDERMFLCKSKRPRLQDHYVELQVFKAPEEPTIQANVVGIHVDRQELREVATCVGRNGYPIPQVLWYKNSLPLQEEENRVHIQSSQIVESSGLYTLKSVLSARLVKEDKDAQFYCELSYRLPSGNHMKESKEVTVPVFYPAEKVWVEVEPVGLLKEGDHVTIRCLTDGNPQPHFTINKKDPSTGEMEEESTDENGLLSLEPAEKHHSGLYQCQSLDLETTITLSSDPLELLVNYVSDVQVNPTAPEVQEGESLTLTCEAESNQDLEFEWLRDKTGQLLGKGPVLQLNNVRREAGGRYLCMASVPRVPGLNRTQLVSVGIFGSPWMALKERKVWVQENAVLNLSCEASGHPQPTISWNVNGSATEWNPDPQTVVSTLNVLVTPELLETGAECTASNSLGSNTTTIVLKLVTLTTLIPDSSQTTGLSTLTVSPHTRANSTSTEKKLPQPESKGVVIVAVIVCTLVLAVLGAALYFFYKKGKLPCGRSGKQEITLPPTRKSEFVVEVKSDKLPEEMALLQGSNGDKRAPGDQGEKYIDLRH
Kind of assay: flow cytometry on cells; CHO.mMCAM or parental CHO cells incubated 30 minutes at 37°C with recombinant laminin 411 or 511 (20 µg/mL), washed, bound laminin detected with fluorescently labeled pan laminin antibody; where indicated cells preincubated 15 minutes with 10 µg/mL neutralizing anti-mouse MCAM; only the binder purified.

Assay [2] has as its target T1, mouse MCAM on stably transfected CHO cells (CHO.mMCAM) (mouse). As to the kind of experiment: flow cytometry on cells; soluble MCAM-Fc on CHO cells transfected with MCAM and sorted for high expressors, compared with human IgG control and Fc-tagged CTLA-4; only the binder purified.

On to “recombinant laminin 511 (from UniProt O15230 36-3695; P07942 22-1786; P11047 34-1609) (complex)”, for which the binding result in assay [1] was “no binding (tested: 20 µg/mL)”. Regarding “recombinant human laminin 411 (from UniProt Q16363 25-1823; P07942 22-1786; P11047 34-1609) (complex)”, the binding entry in assay [1] is recorded as “binds”.

B1: mMCAM-Fc protein (Fc fusion, UniProt Q8R2Y2 24-563)
chain: VPGEEKQPVPTPDLVEAEVGSTALLKCGPSRASGNFSQVDWFLIHKERQILIFRVHQGKGQREPGEYEHRLSLQDSVATLALSHVTPHDERMFLCKSKRPRLQDHYVELQVFKAPEEPTIQANVVGIHVDRQELREVATCVGRNGYPIPQVLWYKNSLPLQEEENRVHIQSSQIVESSGLYTLKSVLSARLVKEDKDAQFYCELSYRLPSGNHMKESKEVTVPVFYPAEKVWVEVEPVGLLKEGDHVTIRCLTDGNPQPHFTINKKDPSTGEMEEESTDENGLLSLEPAEKHHSGLYQCQSLDLETTITLSSDPLELLVNYVSDVQVNPTAPEVQEGESLTLTCEAESNQDLEFEWLRDKTGQLLGKGPVLQLNNVRREAGGRYLCMASVPRVPGLNRTQLVSVGIFGSPWMALKERKVWVQENAVLNLSCEASGHPQPTISWNVNGSATEWNPDPQTVVSTLNVLVTPELLETGAECTASNSLGSNTTTIVLKLVTLTTLIPDSSQTTGLSTLTVSPHTRANSTSTEKKLPQPESKGVV
modifications: fluorescently labeled when used as a staining reagent on tissue
For B1, in assay [2], the binding result is listed as “no binding”.
